Results reported in the supplement of paper PMC6411743.
± gives the standard deviation of the averaged measurements. The list shows a part of the results, in another mix than the full data.

The chains behind the UniProt entries cited, without tags or fusion partners. Where a name states a change or a piece, a line headed by the entry shows the natural chain unless it says otherwise.
UniProt Q9NRD1: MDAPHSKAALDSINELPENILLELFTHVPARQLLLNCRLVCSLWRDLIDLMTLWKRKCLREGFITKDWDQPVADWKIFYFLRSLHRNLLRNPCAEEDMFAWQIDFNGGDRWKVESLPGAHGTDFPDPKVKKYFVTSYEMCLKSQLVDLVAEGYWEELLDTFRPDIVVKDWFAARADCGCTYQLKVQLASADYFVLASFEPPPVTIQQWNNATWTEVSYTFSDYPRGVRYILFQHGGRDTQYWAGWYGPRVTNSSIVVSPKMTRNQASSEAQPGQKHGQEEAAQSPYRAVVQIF
UniProt Q9P0W2: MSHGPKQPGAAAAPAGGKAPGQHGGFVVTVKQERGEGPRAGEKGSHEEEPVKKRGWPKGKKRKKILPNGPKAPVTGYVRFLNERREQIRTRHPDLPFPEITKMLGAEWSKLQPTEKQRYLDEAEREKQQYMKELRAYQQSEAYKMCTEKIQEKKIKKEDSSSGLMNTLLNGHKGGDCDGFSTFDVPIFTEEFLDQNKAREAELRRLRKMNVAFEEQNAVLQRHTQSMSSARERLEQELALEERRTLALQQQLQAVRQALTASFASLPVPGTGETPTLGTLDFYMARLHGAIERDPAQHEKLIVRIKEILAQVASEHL
UniProt Q9NTJ3, whole entry: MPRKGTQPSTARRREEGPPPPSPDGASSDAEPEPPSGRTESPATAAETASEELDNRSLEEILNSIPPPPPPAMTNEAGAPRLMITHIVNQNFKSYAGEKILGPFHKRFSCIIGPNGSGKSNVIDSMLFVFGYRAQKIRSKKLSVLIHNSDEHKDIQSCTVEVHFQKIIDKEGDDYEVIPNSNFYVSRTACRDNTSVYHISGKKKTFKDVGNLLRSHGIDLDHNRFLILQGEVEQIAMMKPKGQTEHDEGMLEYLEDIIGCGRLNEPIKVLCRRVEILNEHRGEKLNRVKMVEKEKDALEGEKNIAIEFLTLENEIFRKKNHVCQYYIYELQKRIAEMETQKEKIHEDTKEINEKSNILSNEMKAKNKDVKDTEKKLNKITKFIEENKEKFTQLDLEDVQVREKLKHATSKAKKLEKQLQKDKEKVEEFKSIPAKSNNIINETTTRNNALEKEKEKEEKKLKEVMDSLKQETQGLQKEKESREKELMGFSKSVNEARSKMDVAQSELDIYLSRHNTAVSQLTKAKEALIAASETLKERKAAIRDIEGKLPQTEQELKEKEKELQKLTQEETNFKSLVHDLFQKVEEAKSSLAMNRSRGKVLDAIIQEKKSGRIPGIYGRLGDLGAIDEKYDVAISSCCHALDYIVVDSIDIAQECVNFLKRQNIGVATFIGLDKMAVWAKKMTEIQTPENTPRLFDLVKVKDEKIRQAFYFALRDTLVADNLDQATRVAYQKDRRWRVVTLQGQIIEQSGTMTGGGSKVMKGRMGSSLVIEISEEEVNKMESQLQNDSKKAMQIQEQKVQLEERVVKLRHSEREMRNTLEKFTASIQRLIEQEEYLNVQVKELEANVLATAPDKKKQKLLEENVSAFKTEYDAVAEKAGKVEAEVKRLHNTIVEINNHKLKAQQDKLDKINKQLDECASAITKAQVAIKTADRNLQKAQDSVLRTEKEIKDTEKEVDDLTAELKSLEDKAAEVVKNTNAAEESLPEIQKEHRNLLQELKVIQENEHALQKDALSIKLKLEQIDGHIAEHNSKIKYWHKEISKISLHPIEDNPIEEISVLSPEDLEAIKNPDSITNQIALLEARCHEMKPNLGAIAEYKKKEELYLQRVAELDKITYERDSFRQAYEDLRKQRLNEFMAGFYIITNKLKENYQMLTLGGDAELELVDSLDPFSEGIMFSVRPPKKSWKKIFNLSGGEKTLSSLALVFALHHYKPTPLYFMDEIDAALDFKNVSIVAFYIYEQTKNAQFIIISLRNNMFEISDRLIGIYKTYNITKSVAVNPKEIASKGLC
UniProt Q9NRX1: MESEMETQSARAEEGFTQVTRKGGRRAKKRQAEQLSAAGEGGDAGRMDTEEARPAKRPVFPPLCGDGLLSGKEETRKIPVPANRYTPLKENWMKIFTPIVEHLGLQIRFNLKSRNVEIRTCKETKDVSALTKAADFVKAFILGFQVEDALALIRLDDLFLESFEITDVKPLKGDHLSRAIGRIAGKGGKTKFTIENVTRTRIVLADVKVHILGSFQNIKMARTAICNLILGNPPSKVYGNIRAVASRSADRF
UniProt Q9P000, whole entry: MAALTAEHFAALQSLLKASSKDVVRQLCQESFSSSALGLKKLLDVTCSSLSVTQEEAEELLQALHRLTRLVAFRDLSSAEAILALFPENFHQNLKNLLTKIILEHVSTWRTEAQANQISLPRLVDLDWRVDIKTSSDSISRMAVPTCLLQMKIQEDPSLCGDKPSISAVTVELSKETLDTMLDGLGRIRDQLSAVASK
UniProt Q9NYJ8: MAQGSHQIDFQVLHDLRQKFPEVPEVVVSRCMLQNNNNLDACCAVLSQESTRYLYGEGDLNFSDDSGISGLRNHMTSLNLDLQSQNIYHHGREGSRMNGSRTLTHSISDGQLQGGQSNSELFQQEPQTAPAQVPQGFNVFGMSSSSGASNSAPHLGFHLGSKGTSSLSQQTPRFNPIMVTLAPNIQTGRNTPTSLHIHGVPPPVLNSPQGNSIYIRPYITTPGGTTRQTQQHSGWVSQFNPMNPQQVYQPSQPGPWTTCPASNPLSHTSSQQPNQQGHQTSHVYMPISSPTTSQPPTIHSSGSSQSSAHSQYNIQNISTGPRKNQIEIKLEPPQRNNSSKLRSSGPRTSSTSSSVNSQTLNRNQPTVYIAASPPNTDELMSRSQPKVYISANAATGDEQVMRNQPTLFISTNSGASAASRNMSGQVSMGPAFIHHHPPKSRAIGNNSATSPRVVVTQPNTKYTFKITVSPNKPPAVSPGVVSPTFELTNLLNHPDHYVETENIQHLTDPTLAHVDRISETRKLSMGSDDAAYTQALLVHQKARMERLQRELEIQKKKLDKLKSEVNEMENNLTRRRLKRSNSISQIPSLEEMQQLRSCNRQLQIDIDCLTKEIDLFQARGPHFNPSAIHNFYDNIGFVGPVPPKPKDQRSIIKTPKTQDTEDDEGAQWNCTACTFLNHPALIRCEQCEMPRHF
UniProt Q9NRY4: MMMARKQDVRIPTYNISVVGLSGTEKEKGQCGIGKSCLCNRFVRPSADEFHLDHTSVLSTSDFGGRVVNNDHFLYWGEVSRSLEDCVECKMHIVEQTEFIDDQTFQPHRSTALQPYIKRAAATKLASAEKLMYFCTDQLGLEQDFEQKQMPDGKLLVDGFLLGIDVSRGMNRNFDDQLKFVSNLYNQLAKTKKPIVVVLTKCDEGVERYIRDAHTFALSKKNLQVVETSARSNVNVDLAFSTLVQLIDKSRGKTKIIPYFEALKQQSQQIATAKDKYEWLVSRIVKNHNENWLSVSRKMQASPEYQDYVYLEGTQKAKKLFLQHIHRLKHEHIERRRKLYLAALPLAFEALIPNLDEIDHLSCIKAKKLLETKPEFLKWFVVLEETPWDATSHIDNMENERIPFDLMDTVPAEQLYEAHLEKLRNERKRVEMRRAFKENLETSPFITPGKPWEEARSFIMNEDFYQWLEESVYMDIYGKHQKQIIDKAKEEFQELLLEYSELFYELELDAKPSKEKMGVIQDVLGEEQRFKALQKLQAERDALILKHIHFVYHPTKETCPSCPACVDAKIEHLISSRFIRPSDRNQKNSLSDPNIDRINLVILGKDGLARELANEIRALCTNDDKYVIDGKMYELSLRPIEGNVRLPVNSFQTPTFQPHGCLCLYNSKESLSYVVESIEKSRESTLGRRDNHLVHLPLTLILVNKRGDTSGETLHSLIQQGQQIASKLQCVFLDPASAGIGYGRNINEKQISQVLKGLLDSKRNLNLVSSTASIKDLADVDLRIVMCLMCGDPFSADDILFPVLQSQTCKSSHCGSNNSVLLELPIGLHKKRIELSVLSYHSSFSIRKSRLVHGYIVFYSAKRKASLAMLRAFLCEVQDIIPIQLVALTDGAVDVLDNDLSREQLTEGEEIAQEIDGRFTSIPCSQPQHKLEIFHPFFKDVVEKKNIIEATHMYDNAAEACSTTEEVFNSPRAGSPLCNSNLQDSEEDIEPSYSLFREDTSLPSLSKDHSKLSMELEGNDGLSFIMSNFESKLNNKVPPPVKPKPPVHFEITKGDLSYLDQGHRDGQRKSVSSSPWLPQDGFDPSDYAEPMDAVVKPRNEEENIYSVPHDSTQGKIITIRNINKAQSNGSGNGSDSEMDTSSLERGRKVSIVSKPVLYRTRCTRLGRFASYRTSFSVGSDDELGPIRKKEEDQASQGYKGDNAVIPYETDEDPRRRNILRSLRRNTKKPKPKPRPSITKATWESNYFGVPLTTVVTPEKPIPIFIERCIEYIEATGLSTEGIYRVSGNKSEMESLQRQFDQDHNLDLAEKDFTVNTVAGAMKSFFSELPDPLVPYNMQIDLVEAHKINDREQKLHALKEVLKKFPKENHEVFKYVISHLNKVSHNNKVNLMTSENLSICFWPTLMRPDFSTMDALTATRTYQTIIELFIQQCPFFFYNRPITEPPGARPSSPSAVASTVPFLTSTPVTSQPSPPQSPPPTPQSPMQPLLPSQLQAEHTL
UniProt Q9NYL9: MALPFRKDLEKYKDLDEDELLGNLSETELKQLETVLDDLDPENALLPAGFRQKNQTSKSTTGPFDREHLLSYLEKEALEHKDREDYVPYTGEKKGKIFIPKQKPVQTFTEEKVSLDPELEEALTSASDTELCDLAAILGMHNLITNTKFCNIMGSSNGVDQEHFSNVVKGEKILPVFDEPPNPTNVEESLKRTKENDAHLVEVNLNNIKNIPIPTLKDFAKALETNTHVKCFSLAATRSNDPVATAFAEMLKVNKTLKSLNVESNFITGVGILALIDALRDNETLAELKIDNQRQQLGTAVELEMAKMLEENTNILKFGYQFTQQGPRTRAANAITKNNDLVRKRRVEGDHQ
UniProt Q9NRB3: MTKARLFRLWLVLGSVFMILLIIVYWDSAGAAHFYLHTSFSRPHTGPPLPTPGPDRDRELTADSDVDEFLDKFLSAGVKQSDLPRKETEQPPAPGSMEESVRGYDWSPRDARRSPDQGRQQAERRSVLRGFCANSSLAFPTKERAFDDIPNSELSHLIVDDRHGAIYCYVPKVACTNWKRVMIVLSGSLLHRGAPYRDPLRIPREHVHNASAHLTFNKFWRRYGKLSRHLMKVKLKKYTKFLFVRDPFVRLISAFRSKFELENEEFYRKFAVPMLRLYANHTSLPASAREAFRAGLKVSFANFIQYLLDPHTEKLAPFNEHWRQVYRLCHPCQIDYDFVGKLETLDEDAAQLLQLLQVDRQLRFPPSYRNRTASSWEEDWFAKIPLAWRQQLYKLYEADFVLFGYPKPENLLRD
UniProt Q9NW13: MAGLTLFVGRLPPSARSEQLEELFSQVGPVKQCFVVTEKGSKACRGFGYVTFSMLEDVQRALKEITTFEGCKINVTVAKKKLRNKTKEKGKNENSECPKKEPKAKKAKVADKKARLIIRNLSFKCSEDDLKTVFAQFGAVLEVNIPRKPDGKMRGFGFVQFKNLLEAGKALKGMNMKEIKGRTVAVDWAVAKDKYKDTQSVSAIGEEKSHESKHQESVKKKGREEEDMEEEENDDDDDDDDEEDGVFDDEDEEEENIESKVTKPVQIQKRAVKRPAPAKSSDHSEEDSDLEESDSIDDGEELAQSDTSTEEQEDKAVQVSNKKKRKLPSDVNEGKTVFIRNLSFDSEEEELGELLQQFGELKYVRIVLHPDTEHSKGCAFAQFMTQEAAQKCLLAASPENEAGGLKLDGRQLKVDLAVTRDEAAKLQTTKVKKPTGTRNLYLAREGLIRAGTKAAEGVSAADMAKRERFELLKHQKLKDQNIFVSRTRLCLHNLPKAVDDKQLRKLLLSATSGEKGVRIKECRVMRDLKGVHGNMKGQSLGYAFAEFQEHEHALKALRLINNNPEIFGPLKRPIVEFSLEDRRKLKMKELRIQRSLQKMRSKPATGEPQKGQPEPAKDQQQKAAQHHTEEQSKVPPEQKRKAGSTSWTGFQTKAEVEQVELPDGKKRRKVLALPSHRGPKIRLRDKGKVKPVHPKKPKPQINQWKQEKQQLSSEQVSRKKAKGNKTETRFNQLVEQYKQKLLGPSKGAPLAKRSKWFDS
UniProt Q9NRG4: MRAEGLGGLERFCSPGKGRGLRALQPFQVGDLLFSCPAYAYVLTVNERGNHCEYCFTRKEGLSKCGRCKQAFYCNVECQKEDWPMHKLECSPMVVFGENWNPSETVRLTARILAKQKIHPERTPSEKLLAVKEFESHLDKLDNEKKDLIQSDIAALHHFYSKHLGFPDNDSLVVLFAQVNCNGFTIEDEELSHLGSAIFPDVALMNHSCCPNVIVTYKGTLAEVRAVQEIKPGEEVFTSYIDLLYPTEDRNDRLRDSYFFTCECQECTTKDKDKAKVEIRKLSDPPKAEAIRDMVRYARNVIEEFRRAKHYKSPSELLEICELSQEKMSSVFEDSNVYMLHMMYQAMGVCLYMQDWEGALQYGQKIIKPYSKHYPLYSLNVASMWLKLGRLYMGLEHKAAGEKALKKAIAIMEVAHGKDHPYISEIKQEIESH

Compound: Nc1ncnc2c1ncn2[C@@H]1O[C@H](COP(=O)(O)OP(=O)(O)OP(=O)(O)O)[C@@H](O)[C@H]1O [adenosine triphosphate]
Experiment: NP40-soluble protein abundance relative to vehicle (solubility fold change) (ratio); higher = more soluble protein in presence of ATP
How it was run: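 Jurkat crude lysate prepared with a Dounce homogeniser was treated at eight concentrations spanning 0.1 to 10 mM, 10 min at room temperature then 3 min at 37 °C. Solubilisation with 0.8% NP40 and benzonase and ultracentrifugation preceded TMT labelling of the supernatant for LC-MS/MS. Fold change against the detergent-processed vehicle was determined per replicate from vsn-normalised intensities, across three independent experiments.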

Target	NP40-soluble protein abundance (concentration: 1mM)	NP40-soluble protein abundance (concentration: 2mM)	NP40-soluble protein abundance (concentration: 4mM)	NP40-soluble protein abundance (concentration: 6mM)	NP40-soluble protein abundance (concentration: 8mM)	NP40-soluble protein abundance (concentration: 10mM)
MRPL15 (UniProt Q9P015)	1.13 ± 0.14	0.976 ± 0.11	0.938 ± 0.079	0.97 ± 0.28	0.967 ± 0.2	0.896 ± 0.14
UniProt Q9NRD1 and related entries	0.852 ± 0.15	0.811 ± 0.11	0.92 ± 0.14	0.904 ± 0.15	0.898 ± 0.12	0.99 ± 0.14
HMG20B (UniProt Q9P0W2)	1.03 ± 0.13	0.997 ± 0.1	1 ± 0.13	1.07 ± 0.15	1.03 ± 0.042	0.975 ± 0.1
COMMD8 (UniProt Q9NX08)	1.04 ± 0.11	0.929 ± 0.037	0.914 ± 0.049	0.938 ± 0.056	0.951 ± 0.029	0.836 ± 0.035
UniProt Q9NZT2 and related entries	0.9342 ± 0.0093	0.9448 ± 0.0094	0.941 ± 0.027	0.915 ± 0.033	0.9361 ± 0.0074	0.943 ± 0.017
SMC4 (UniProt Q9NTJ3)	1.01 ± 0.033	0.9853 ± 0.0086	0.963 ± 0.016	1.01 ± 0.031	0.991 ± 0.029	0.984 ± 0.04
PNO1 (UniProt Q9NRX1)	0.966 ± 0.047	1.06 ± 0.095	1.04 ± 0.11	1.13 ± 0.12	1.13 ± 0.14	1.29 ± 0.19
UniProt Q9NSG2 and related entries	1.03 ± 0.031	0.994 ± 0.039	0.952 ± 0.025	1.04 ± 0.068	0.99 ± 0.087	1.01 ± 0.073
COMMD9 (UniProt Q9P000)	0.997 ± 0.023	1 ± 0.015	0.997 ± 0.012	0.985 ± 0.049	0.959 ± 0.041	0.911 ± 0.034
EXOSC3 (UniProt Q9NQT5)	1.04 ± 0.048	1.09 ± 0.024	1.11 ± 0.036	1.16 ± 0.025	1.24 ± 0.013	1.26 ± 0.026
UniProt Q9NW75 and related entries	1.03 ± 0.045	1.03 ± 0.025	1.03 ± 0.03	1.01 ± 0.031	1.05 ± 0.04	1.03 ± 0.046
TMEM30A (UniProt Q9NV96)	0.926 ± 0.11	0.961 ± 0.073	0.94 ± 0.062	0.925 ± 0.14	0.865 ± 0.087	0.886 ± 0.073
UniProt Q9NYJ8	0.907 ± 0.015	0.878 ± 0.0098	0.979 ± 0.11	0.9507 ± 0.0047	1.09 ± 0.1	0.986 ± 0.026
UniProt Q9NRY4	0.994 ± 0.038	0.984 ± 0.021	1.02 ± 0.023	0.953 ± 0.06	0.997 ± 0.019	0.964 ± 0.036
TMOD3 (UniProt Q9NYL9)	0.981 ± 0.073	1.01 ± 0.019	1 ± 0.038	1.03 ± 0.064	1.01 ± 0.033	0.963 ± 0.035
MED4 (UniProt Q9NPJ6)	0.986 ± 0.073	1 ± 0.061	0.986 ± 0.054	1.04 ± 0.079	1 ± 0.023	0.943 ± 0.098
UniProt Q9P0U3 and related entries	1.04 ± 0.071	1.03 ± 0.15	1.03 ± 0.13	1.06 ± 0.19	1.06 ± 0.15	1.11 ± 0.17
C12orf4 (UniProt Q9NQ89)	1.02 ± 0.15	0.973 ± 0.2	1.03 ± 0.18	0.997 ± 0.17	0.896 ± 0.032	1.01 ± 0.12
UniProt Q9P1Y5 and related entries	1.02 ± 0.13	1.03 ± 0.064	1.11 ± 0.099	1.13 ± 0.066	1.05 ± 0.071	1.12 ± 0.071
SMARCAL1 (UniProt Q9NZC9)	1.02 ± 0.056	1.06 ± 0.044	1.1 ± 0.077	1.04 ± 0.04	1.03 ± 0.049	1.09 ± 0.02
ZBTB40 (UniProt Q9NUA8)	0.977 ± 0.024	1.01 ± 0.03	0.965 ± 0.064	0.933 ± 0.067	0.925 ± 0.025	0.917 ± 0.027
UniProt Q9NR31-2|Q9NR31	0.925 ± 0.1	0.898 ± 0.064	0.856 ± 0.016	0.853 ± 0.12	0.893 ± 0.046	0.865 ± 0.027
UniProt Q9NUQ3	0.964 ± 0.037	0.9579 ± 0.0068	0.923 ± 0.033	0.987 ± 0.01	0.933 ± 0.013	0.93 ± 0.034
CHST12 (UniProt Q9NRB3)	0.903 ± 0.03	0.984 ± 0.03	1.01 ± 0.049	0.954 ± 0.095	0.901 ± 0.023	0.917 ± 0.1
UniProt Q9NZC3 and related entries	0.893 ± 0.035	0.942 ± 0.017	0.953 ± 0.029	0.926 ± 0.055	0.897 ± 0.018	0.909 ± 0.041
RBM28 (UniProt Q9NW13)	1.07 ± 0.047	1.12 ± 0.024	1.15 ± 0.043	1.23 ± 0.03	1.21 ± 0.025	1.3 ± 0.023
SMYD2 (UniProt Q9NRG4)	1.09 ± 0.12	1.07 ± 0.063	1.09 ± 0.065	1.04 ± 0.082	1.12 ± 0.069	1.04 ± 0.063
UTP6 (UniProt Q9NYH9)	1.01 ± 0.13	0.965 ± 0.089	1.03 ± 0.088	0.851 ± 0.2	0.994 ± 0.058	0.975 ± 0.0095
UniProt Q9NX55	0.976 ± 0.049	0.96 ± 0.021	0.923 ± 0.034	1.07 ± 0.05	0.969 ± 0.017	0.944 ± 0.041
UniProt Q9NX74	1.06 ± 0.13	1.07 ± 0.14	1.09 ± 0.16	1.07 ± 0.2	1.08 ± 0.14	1.06 ± 0.15

Copied from the list.
UTP6 (UniProt Q9NYH9) | NP40-soluble protein abundance (concentration: 8mM): 0.994 ± 0.058
UniProt Q9NSG2 and related entries | NP40-soluble protein abundance (concentration: 1mM): 1.03 ± 0.031
